The assay deals with P388 leukemia ip, CD2F1 mice, survival T/C. Put plainly: NCI In Vivo Anticancer Drug Screen. Data for tumor model P388 Leukemia (intraperitoneal) in CD2F1 (CDF1) mice. The conditions noted are these: T/C endpoint: median survival time, higher T/C = longer survival.
[1] abbreviates: dose: 100.0 mg/kg/injection, schedule: Q01DX005 (ip), vehicle: Klucel (hydroxypropylcellulose) (HPC).
The mark [2] stands for this setting: dose: 200.0 mg/kg/injection, schedule: Q01DX005 (ip), vehicle: Klucel (hydroxypropylcellulose) (HPC).
Where [3] appears, read: dose: 50.0 mg/kg/injection, schedule: Q01DX005 (ip), vehicle: Klucel (hydroxypropylcellulose) (HPC).
[4] abbreviates: dose: 50.0 mg/kg/injection, schedule: Q01DX009 (ip), vehicle: saline with Tween-80.
Setting [5] is: dose: 100.0 mg/kg/injection, schedule: Q01DX009 (ip), vehicle: saline with Tween-80.
The mark [6] stands for this setting: dose: 200.0 mg/kg/injection, schedule: Q01DX009 (ip), vehicle: saline with Tween-80.

Among the data in PubChem BioAssay AID330 (DTP/NCI, 2004) are survivor count and T/C values, retold here.

The list shows only some results of the screen, not a fair sample: it is rich in T/C values a quarter to a half above the control, in often repeated tests (any T/C) and in doses without a T/C. Other doses and runs of a compound stand elsewhere. T/C: endpoint of the treated group in % of that of the vehicle group. Some doses have a count of surviving animals in place of a T/C: the source holds a T/C of zero for them, seemingly a mark for toxic or unscored doses. Some doses without a T/C left all or most animals alive at the check, yet need not have been tolerated: survival well below the control is almost never listed, so the zero probably covers shortened survival too. Counts of survivors are from the toxicity check (mostly the fifth day) where no day follows; animals may have died later. Schedules are NCI's codes, taken here to give the interval after Q, in days (D) or hours (H), and the number of doses after X. Some entries were tested several times; the values are given in rising order. Where survival is the endpoint, the PubChem record calls one and a half times the control and up active, and a quarter to a half above the control has no call in these data; cut-offs in other NCI protocols can differ.

Regarding `O=C1c2ccccc2NC2(C(=O)Nc3ccccc32)N1N1CCOCC1` (centres undefined), the survivor count under setting [1] is on record as 0 of 6 and the survivor count under setting [2] was 2 of 6.
As to `O=C(NP1(=O)NCc2ccccc2CN1)OC1CCCCC1`, the survivor count runs as follows: under setting [3], 5 of 5; under setting [1], 5 of 5; under setting [2], 4 of 4.
On to `CCOC(=O)c1cc2nc3ccccn3c(=O)c2cc1N`, for which, under setting [4], the survivor count is 6 of 6.
In the case of `C=C(C(=O)OC1C/C(C)=C/C(O)C/C(C)=C/C2OC(=O)C(=C)C21)C(C)O` (centres undefined), the T/C (dose: 100.0 mg/kg/injection, schedule: Q04DX002 (ip), vehicle: saline with Tween-80) is 125 % of control. Moreover, under “dose: 200.0 mg/kg/injection, schedule: Q04DX002 (ip), vehicle: Klucel (hydroxypropylcellulose) (HPC)”, the survivor count is 0 of 6.
In the case of `C/C=C1\C(=O)OC23C=CC4C(C(=O)OC)C(O)OC(OC12)C43` (centres undefined), the survivor count is listed as 6 of 6 (dose: 0.25 mg/kg/injection, schedule: Q01DX009 (ip), vehicle: saline with Tween-80) and 6 of 6 (dose: 0.5 mg/kg/injection, schedule: Q01DX009 (ip), vehicle: saline with Tween-80).
Take `COC1=CC(=[N+]2CCCCC2)CC(C)(C)C1`: the survivor count is reported as 0 of 6 (dose: 100.0 mg/kg/injection, schedule: Q01DX005 (ip), vehicle: saline) and 0 of 6 (dose: 200.0 mg/kg/injection, schedule: Q01DX005 (ip), vehicle: saline).
Turning to `CC(C(=O)O)N1C(=O)C=CC1=O` (centres undefined), the survivor count runs as follows: under setting [4], 0 of 6 and 1 of 6; under setting [5], 0 of 6; under setting [6], 0 of 6.
Consider `O=C1NC(=O)C(=Cc2c(Cl)cccc2Cl)C(=O)N1`, for which the T/C was 125 % of control under setting [4] and 131 % of control under setting [5]. Further, the survivor count under setting [5] is on record as 3 of 6 and the survivor count under setting [6] was 0 of 6.
For the compound `COC(=O)N1CCC(N)(C#N)CC1`, the survivor count is listed as 1 of 6 (dose: 50.0 mg/kg/injection, schedule: Q04DX003 (ip), vehicle: Klucel (hydroxypropylcellulose) (HPC)); 0 of 6 (dose: 65.5 mg/kg/injection, schedule: Q04DX003 (ip), vehicle: Klucel (hydroxypropylcellulose) (HPC)); 0 of 6 (dose: 131.0 mg/kg/injection, schedule: Q04DX003 (ip), vehicle: Klucel (hydroxypropylcellulose) (HPC)); 0 of 6 (dose: 262.0 mg/kg/injection, schedule: Q04DX003 (ip), vehicle: Klucel (hydroxypropylcellulose) (HPC)).
Consider `CC1OC2CC(=O)OC2C2=C1C(=O)c1cc(-c3cc(O)c4c(c3)C(=O)C3=C(C4=O)C4OC(=O)CC4OC3C)cc(O)c1C2=O` (centres undefined), for which the survivor count (dose: 7.6 mg/kg/injection, schedule: Q01DX005 (ip), vehicle: DMSO) is 3 of 6.
For the compound `CCCCOP(=O)(O)OCCCC.[U]`, the survivor count by setting is: (dose: 12.5 mg/kg/injection, schedule: Q01DX009 (ip), vehicle: saline with Tween-80) 6 of 6; (dose: 25.0 mg/kg/injection, schedule: Q01DX009 (ip), vehicle: saline with Tween-80) 6 of 6; under setting [4], 6 of 6; under setting [5], 5 of 6; under setting [6], 5 of 6.
For `COc1ccc(-c2c(-c3ccccc3)oc(/N=C/c3ccccc3)c2-c2ccccc2)cc1`, the survivor count by setting is: (dose: 50.0 mg/kg/injection, schedule: Q01DX005 (ip), vehicle: saline with Tween-80) 6 of 6; (dose: 100.0 mg/kg/injection, schedule: Q01DX005 (ip), vehicle: saline with Tween-80) 6 of 6; (dose: 200.0 mg/kg/injection, schedule: Q01DX005 (ip), vehicle: saline with Tween-80) 6 of 6.
With `Nc1c(-c2ccc(C3=NCCN3)cc2)[nH]c2cc(C3=NCCN3)ccc12`, the T/C reads like this: (dose: 25.0 mg/kg/injection, schedule: Q01DX005 (ip), vehicle: Klucel (hydroxypropylcellulose) (HPC)) 128 % of control; under setting [3], 130 % of control. For the same compound, the survivor count is, setting by setting: under setting [1], 0 of 6; under setting [2], 0 of 6.
`[CH3][Sn]([CH3])([Br])[Br].c1ccc(-c2nnc(-c3ccccn3)nc2-c2ccccc2)cc1`: the survivor count (dose: 240.0 mg/kg/injection, schedule: Q01DX005 (ip), vehicle: Klucel (hydroxypropylcellulose) (HPC)) was 0 of 6.
As to `c1ccc(-c2c(-c3ccccc3)[c+]2-c2ccccc2)cc1`, the survivor count (dose: 400.0 mg/kg/injection, schedule: Q01DX001 (ip), vehicle: gum acacia) is on record as 4 of 5.
For the compound `Oc1c(Cl)cc(Cl)cc1C=NCCSc1ccc(Cl)cc1`, the T/C reads like this: (dose: 200.0 mg/kg/injection, schedule: Q01DX005 (ip), vehicle: Klucel (hydroxypropylcellulose) (HPC), evaluated on day 20) 112 % of control; (dose: 200.0 mg/kg/injection, schedule: Q01DX005 (ip), vehicle: Klucel (hydroxypropylcellulose) (HPC), evaluated on day 30) 112, 115, 125 % of control; (dose: 400.0 mg/kg/injection, schedule: Q01DX005 (ip), vehicle: Klucel (hydroxypropylcellulose) (HPC)) 129 % of control. Also, the survivor count (dose: 800.0 mg/kg/injection, schedule: Q01DX005 (ip), vehicle: Klucel (hydroxypropylcellulose) (HPC)) was 0 of 6.
In the case of `COC(=O)/C=C(\C(=O)OC)C(C(C)=O)C(C)=NCCN=C(C)C(C(C)=O)/C(=C/C(=O)OC)C(=O)OC.[Cu]` (centres undefined), the survivor count (dose: 200.0 mg/kg/injection, schedule: Q04DX003 (ip), vehicle: Klucel (hydroxypropylcellulose) (HPC)) is 0 of 6 and the survivor count (dose: 400.0 mg/kg/injection, schedule: Q04DX003 (ip), vehicle: Klucel (hydroxypropylcellulose) (HPC)) is recorded as 0 of 6.
